# Data taken from PubChem BioAssay AID1671190 (National Center for Advancing Translational Sciences (NCATS), 2021).
# Protein sequences, listed by entry. Tags and fused reporters are not part of them. Lines headed by an entry give the natural chain unless they say otherwise; changes in a name come on top.
# UniProt P18054: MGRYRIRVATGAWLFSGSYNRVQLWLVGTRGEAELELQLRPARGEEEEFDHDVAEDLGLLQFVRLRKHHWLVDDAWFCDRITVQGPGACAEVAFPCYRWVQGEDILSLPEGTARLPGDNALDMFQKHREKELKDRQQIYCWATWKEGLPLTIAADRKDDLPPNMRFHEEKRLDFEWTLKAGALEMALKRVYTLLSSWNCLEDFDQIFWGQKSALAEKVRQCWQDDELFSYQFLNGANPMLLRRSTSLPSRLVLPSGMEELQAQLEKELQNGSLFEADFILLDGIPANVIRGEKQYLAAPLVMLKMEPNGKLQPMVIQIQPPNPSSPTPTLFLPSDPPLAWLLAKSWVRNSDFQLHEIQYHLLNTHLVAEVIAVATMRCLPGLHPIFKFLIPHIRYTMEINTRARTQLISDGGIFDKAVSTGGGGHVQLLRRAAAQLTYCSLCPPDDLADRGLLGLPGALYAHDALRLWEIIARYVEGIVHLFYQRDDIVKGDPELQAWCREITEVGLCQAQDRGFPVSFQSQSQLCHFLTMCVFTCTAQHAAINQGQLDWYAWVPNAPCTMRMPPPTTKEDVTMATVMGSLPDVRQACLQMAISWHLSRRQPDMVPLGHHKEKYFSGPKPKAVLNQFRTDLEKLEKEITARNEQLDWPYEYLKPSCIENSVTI
# Hit rate of the full screen: of about 580,000 compounds, about 6,100 (1.1%) were called active. This list was built around the results that the source calls inconclusive (neither active nor inactive); the mix of calls is not that of the screen. Calls follow the shape of the dose curve; as a rule, active = well fitted inhibition curve with a large enough effect; inconclusive = small, poorly fitted or top-dose-only effect, or another doubt; inactive = no such curve, though single readings can be large or run the other way. Potencies beside an inconclusive call are fits to weak or partial responses and may not hold up.
# Molecular target: Polyunsaturated fatty acid lipoxygenase ALOX12 (Homo sapiens) (UniProt P18054)
# Experiment: Primary qHTS assay for inhibitors of human arachidonate 12S-lipoxygenase (ALOX12): Round 2
# Details: purified 12hLO, xylenol orange hydroperoxide absorbance; activity change, negative = inhibition: at 108 µM (top of the series) unless noted
# Procedure, shortened: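 Hydroperoxide product was detected by ferrous iron/xylenol orange as the 573 to 405 nm absorbance ratio. Arachidonic acid at 40 uM (final) was turned over for 30 min at room temperature by 150 nM human 12hLO, pH 7.0 Hepes buffer, after 15 min compound preincubation.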
# % is scaled to controls: 0 for no effect and ±100 for the full control effect; potency is read from the fitted curve at half-maximal effect.
SMILES,Potency,"activity change, negative = inhibition"
COc1ccc(C(c2c(O)cc(C)n(Cc3ccco3)c2=O)N2CCN(c3ccccc3)CC2)cc1 (centres undefined),"inconclusive: 44.7 µM [inhibitor, partial curve, poor fit]",
CC1(C(=O)O)CCN(Cc2ccccc2)CC1,,inactive: -0.454% [at 12.5 µM]
O=C(c1ccc(Cl)cc1Cl)N(CCS(=O)(=O)N1CCCC1)Cc1cccnc1,"inconclusive: 0.708 µM [inhibitor, full curve]",
Cc1ccc(S(=O)Cc2nc(-c3ccc(C(=O)NCCCN4CCOCC4)cc3)oc2C)cc1 (centres undefined),"inconclusive: 50.1 µM [inhibitor, partial curve, poor fit]",
CC1(C)CC(NC(=O)C23CCC(C)(C(=O)C2=O)C3(C)C)CC(C)(C)N1 (centres undefined),"inconclusive: 39.8 µM [inhibitor, partial curve, poor fit]",
O=c1[nH]c(/C=C\c2ccc(O)cc2)nc(O)c1[N+](=O)[O-],"inconclusive: 50.1 µM [inhibitor, partial curve, poor fit]",
CC(C)C[C@H]1CN([C@@H](Cc2ccccc2)CN2CCC[C@@H]2CN2C(=O)C(=O)NC[C@@H]2Cc2ccc(O)cc2)C(=O)C(=O)N1CC1CCCCC1,"inconclusive: 50.1 µM [inhibitor, single point]",
CCc1ccc2c(c1)[C@]1(C(=O)N2)N2CCC[C@H]2[C@@H](C(=O)c2ccc(F)cc2)[C@]12C(=O)Nc1ccccc12,"inconclusive: 44.7 µM [inhibitor, partial curve, poor fit]",
Cc1cccc(C(=O)Nc2sc3c(c2C(=O)NCc2ccccc2)CCC3)c1,"inconclusive: 39.8 µM [inhibitor, partial curve, poor fit]",
CCCS(=O)(=O)c1c(S(=O)(=O)CCC)c2ccc(C(N)=O)cn2c1C(=O)c1ccc(F)cc1,,inactive: -14.4%
COc1cccc(-c2cc(C(=O)N3CCC4(CC3)[C@H](O)C[C@@H]4OC)[nH]n2)c1,,inactive: -8.38%
O=C(Cc1ccccc1)NNc1c2ccccc2nc2ccccc12,,inactive: -11.4%
O=c1cc(CN2CCN(c3ccc(Cl)c(Cl)c3)CC2)c2c(ccc3ccccc32)o1,"inconclusive: 112 µM [inhibitor, single point]",
O=S(=O)(c1ccc(Cl)s1)N1CCCCC1,"inconclusive: 3.16 µM [inhibitor, full curve, poor fit]",
Cc1ccc(C)c(NC(=O)CN2C(=O)c3ccccc3C2=O)c1,"inconclusive: 141 µM [inhibitor, partial curve, poor fit]",
COc1ccc(Cc2nc(C(=O)Nc3ccc(OC)cc3)cs2)cc1,"inconclusive: 28.2 µM [inhibitor, single point]",
COc1ccc(C(CNC(=O)c2ccc(-c3ccccc3Cl)o2)N2CCCC2)cc1 (centres undefined),"inconclusive: 50.1 µM [inhibitor, partial curve, poor fit]",
NC(=O)c1ccsc1NC(=O)COC(=O)c1c(F)cccc1Cl,,inactive: 0.928%
NC(=O)Cn1ccc2cc(OCC3CCN(C(=O)Oc4ccccc4Cl)CC3)cnc21,,inactive: -0.0521%
CN(C)CCCN(C(=O)c1ccco1)c1nc(-c2ccc(Cl)cc2)cs1,"inconclusive: 70.8 µM [inhibitor, partial curve, poor fit]",
CSCCC(C(=O)O)N1C(=O)c2ccc(C(=O)O)cc2C1=O (centres undefined),"inconclusive: 79.4 µM [inhibitor, single point]",
CCc1cc(C2CCCN2S(=O)(=O)c2cc(C)c(C)cc2C)on1 (centres undefined),,inactive: 3.05%

# In the list so far, three contain a thiophene ring, fused or not.
SMILES,Potency,"activity change, negative = inhibition"
Cc1cccc(C(=O)Nc2sc3c(c2C(=O)NCc2ccccc2)CCC3)c1,"inconclusive: 39.8 µM [inhibitor, partial curve, poor fit]",
O=S(=O)(c1ccc(Cl)s1)N1CCCCC1,"inconclusive: 3.16 µM [inhibitor, full curve, poor fit]",
NC(=O)c1ccsc1NC(=O)COC(=O)c1c(F)cccc1Cl,,inactive: 0.928%

# Remaining list, next part:

SMILES,Potency,"activity change, negative = inhibition"
CSc1ccc(CN2CCC(C(=O)NCc3ccc(C)cc3)CC2)cc1,"inconclusive: 5.62 µM [inhibitor, full curve, poor fit]",
NC(=O)c1ccc(NC(=O)COC(=O)/C=C/c2ccc(Br)o2)cc1,,inactive: -26.1%
O=C(NCC1CCCO1)C(=O)N/N=C/c1cc(Cl)ccc1O (centres undefined),,inactive: 1.57%
O=C(NC1CCCC1)C(c1ccccc1F)N(C(=O)c1ccco1)C1CCCC1 (centres undefined),"inconclusive: 79.4 µM [inhibitor, single point]",
CC(=O)c1ccc(OCc2cccc(C(F)(F)F)c2)cc1O,"inconclusive: 56.2 µM [inhibitor, partial curve, poor fit]",
CC(=O)N1CCN(c2ccc(NC(=O)c3ccc([N+](=O)[O-])o3)cc2Cl)CC1,"inconclusive: 126 µM [inhibitor, single point]",
COCCn1nnnc1C(c1ccccc1)N1CCN(C(=O)c2ccco2)CC1 (centres undefined),,inactive: -22.6%
CCCCNC(=O)c1ccc2[nH]c(C)c(C)c2c1,"inconclusive: 50.1 µM [inhibitor, partial curve, poor fit]",
Cc1ccc(C(NC(=O)Cc2cccs2)C(=O)Nc2ccc3c(c2)OCCO3)cc1 (centres undefined),"inconclusive: 6.31 µM [inhibitor, full curve, poor fit]",
COc1cc(/C=N/Nc2ncc(C(F)(F)F)cc2Cl)cc(OC)c1O,"inconclusive: 112 µM [inhibitor, partial curve, poor fit]",
Clc1ccc(-c2[nH]ncc2N=Nc2ccccc2)cc1,"inconclusive: 63.1 µM [inhibitor, partial curve, poor fit]",
O=C(O)c1ccc(/C=N/Nc2ccc(F)cc2F)cc1,"inconclusive: 89.1 µM [inhibitor, single point]",
COc1ccc(CN2C=C3C(=O)C(C)(OC(=O)C4CCCC4)C(=O)C=C3C=C2c2ccsc2)cc1 (centres undefined),"inconclusive: 44.7 µM [inhibitor, partial curve, poor fit]",
Cc1nn2c(c1-c1ccccc1[S+](C)(=O)[O-])N(C(=O)Cc1ccccc1)CCC2,"inconclusive: 126 µM [inhibitor, partial curve, poor fit]",
Cc1occc1-c1nnc(SCc2cc(=O)n3cc(Br)ccc3n2)n1C,,inactive: -18.3%
CC(=O)NC(c1ccc(F)c(F)c1)c1nc(-c2cccc(C(=O)O)c2)cs1 (centres undefined),,inactive: -24.1%
COc1ccc2[nH]c(C(=O)Nc3ncc(C)cc3Br)cc2c1,"inconclusive: 126 µM [inhibitor, partial curve, poor fit]",
CCOC(=O)N1CCc2c(sc(NCc3cccc(F)c3)c2C(=O)Nc2ccc(OC)cc2)C1,"inconclusive: 44.7 µM [inhibitor, partial curve, poor fit]",
Cc1c(-c2ccccc2)oc2c(C(=O)NC3CCN(Cc4ccccc4)C3)cccc2c1=O (centres undefined),,inactive: -28.3%
OCc1nc2ccccc2n1CC(O)Cn1ccc2ccccc21 (centres undefined),,inactive: 0%
CCNc1ncc2nc(-c3ccccc3)c(=O)n(C3CC3)c2n1,"inconclusive: 28.2 µM [inhibitor, partial curve, poor fit]",
COCCn1c2c(c(=O)[nH]c1=O)C(c1cccc(Cl)c1)C1=C(N2)c2ccccc2C1=O (centres undefined),"inconclusive: 1.41 µM [inhibitor, full curve, poor fit]",

SMILES,Potency,"activity change, negative = inhibition"
Cc1ccc(CC(=O)Nc2cnc3ccccc3c2)cc1,"inconclusive: 0.891 µM [inhibitor, full curve, poor fit]",
CCC1(c2ccccc2)NC(=O)N(CC(=O)NNC(=O)c2ccc(F)cc2)C1=O (centres undefined),"inconclusive: 3.55 µM [inhibitor, full curve, poor fit]",
COC(=O)[C@@H]1C[C@@H]2CC[C@@H](O)C[C@@H]2N1Cc1ccc(N2CCN(C)CC2)cc1,,inactive: -0.561%
CCCNc1c(NC(=O)c2cc(OC)cc(OC)c2)c(=O)oc2ccccc12,"inconclusive: 2.82 µM [inhibitor, full curve, poor fit]",
CC(=O)Nc1ccc(-c2nc(C)c(C(C)=O)n2O)cc1,,inactive: -15%
O=[N+]([O-])c1cccc(N/N=C/c2cccc(O)c2O)c1,active: 11.2 µM,
Oc1[nH]c(=S)sc1/C=C1\C(c2ccccc2)=Nc2ccccc21,"inconclusive: 56.2 µM [inhibitor, partial curve, poor fit]",
CC(C)Sc1ccc(C(=O)NCC(O)c2ccccc2)cc1 (centres undefined),"inconclusive: 79.4 µM [inhibitor, single point]",
Nc1nc(CN2CCN(Cc3ccccc3)CC2)nc(Nc2ccc3c(c2)OCCO3)n1,,inactive: 44.7%
CCN1CCN(c2ncc3c(n2)CCN(CC(C)C)C3)CC1,"inconclusive: 112 µM [inhibitor, single point]",
O=C1CC(c2ccc3c(c2)OCO3)c2cc3c(cc2N1)OCO3 (centres undefined),"inconclusive: 89.1 µM [inhibitor, partial curve, poor fit]",
COc1ccc(C(=O)C(C)Oc2ccccc2Cl)cc1 (centres undefined),,inactive: 2.25%
Cc1cccc(C(=O)Nc2ccccc2-c2nnn(CC(=O)Nc3ccc4c(c3)OCCO4)n2)c1,"inconclusive: 100 µM [inhibitor, partial curve, poor fit]",
O=C1CCc2cc(NS(=O)(=O)c3ccc([N+](=O)[O-])cc3)cc3c2N1CCC3,"inconclusive: 44.7 µM [inhibitor, partial curve]",
Cc1ccc(NC(=O)NCc2cccn2C)cc1C,,inactive: 6.67%
S=C(NCc1cccs1)Nc1cccc(Cl)c1,"inconclusive: 44.7 µM [inhibitor, partial curve, poor fit]",
COc1ccc(OC)c(NC(=O)c2cc(-c3cc(C)c(C)cc3O)n[nH]2)c1,,inactive: 23.7%
CCOC(=O)[C@]12CCC=C1N(CCC1=CCCCC1)C(=O)[C@H](CC(=O)NCCCCc1ccccc1)C2,"inconclusive: 35.5 µM [inhibitor, partial curve, poor fit]",
Cc1c(N=C2N=C(NC(=O)NC(C)(C)C)c3ccccc32)c(=O)n(-c2ccccc2)n1C,"inconclusive: 56.2 µM [inhibitor, partial curve, poor fit]",
COc1ccccc1C1N(c2ccc(Cl)cc2)C(=O)C2CCCN21 (centres undefined),"inconclusive: 89.1 µM [inhibitor, partial curve, poor fit]",
